± gives the standard deviation of the averaged measurements. The list shows a part of the results.

By UniProt entry, the sequences of proteins in these tests, tags left out. Where a name states a change or a piece, a line headed by the entry shows the natural chain unless it says otherwise.
UniProt Q9ULV4, whole entry: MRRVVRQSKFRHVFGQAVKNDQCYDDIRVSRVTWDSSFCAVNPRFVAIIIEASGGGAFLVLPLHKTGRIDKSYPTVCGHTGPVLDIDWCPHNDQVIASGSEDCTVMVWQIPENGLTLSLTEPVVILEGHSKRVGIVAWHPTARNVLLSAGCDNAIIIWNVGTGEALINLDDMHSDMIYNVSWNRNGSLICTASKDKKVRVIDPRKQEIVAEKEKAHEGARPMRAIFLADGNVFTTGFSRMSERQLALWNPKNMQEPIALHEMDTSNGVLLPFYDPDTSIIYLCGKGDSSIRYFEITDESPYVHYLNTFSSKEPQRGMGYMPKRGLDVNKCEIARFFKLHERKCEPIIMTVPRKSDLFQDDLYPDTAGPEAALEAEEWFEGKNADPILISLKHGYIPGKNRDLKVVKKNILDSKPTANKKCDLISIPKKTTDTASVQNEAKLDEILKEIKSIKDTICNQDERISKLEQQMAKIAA
UniProt Q9NV70: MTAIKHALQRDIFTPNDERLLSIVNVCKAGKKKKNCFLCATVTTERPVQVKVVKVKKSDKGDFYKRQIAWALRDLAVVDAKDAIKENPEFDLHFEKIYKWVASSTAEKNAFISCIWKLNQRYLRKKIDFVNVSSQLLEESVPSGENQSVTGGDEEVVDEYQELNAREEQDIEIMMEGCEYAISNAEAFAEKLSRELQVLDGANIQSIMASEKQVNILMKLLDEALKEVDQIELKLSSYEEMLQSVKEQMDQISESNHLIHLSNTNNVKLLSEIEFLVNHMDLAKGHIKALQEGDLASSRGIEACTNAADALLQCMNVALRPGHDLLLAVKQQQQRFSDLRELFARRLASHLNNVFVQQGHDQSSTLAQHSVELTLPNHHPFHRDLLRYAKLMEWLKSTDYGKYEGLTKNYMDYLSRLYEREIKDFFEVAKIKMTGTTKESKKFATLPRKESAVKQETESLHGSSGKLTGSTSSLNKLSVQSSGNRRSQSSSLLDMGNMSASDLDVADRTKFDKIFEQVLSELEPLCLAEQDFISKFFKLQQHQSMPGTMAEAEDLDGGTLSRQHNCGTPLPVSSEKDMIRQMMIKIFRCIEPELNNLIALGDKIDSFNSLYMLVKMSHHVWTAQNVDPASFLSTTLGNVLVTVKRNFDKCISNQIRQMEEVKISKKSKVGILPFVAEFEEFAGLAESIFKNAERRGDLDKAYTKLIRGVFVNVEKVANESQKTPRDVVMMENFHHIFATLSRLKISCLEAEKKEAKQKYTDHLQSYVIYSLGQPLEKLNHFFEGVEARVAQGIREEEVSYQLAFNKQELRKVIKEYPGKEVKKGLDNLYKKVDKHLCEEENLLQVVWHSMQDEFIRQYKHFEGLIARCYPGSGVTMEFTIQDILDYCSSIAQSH
UniProt Q9P0J7: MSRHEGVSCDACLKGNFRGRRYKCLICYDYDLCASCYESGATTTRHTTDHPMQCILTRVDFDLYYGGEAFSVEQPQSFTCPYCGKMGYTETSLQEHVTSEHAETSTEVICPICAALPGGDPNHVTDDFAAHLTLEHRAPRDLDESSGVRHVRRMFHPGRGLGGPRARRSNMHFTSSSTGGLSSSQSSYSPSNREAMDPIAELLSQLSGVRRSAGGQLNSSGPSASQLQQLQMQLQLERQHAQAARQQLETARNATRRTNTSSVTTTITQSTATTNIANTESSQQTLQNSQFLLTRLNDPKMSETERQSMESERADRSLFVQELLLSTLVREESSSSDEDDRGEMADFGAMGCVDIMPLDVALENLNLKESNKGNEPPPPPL
UniProt Q9UBL3, whole entry: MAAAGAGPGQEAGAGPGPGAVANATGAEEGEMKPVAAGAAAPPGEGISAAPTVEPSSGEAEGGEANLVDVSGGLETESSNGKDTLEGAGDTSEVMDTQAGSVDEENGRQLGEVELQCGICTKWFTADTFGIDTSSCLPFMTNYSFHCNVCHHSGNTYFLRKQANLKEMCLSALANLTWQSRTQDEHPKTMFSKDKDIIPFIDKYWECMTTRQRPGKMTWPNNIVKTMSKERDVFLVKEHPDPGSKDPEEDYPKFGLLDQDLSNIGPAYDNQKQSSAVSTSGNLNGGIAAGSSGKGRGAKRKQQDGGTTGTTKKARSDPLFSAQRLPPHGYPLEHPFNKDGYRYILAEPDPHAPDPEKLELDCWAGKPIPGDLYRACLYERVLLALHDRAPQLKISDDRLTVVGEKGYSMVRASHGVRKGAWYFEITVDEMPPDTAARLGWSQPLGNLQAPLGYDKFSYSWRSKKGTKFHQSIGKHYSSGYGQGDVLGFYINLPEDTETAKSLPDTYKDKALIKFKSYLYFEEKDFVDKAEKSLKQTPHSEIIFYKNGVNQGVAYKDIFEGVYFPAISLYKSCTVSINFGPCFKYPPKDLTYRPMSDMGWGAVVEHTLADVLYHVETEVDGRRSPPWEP
UniProt Q9UIJ7: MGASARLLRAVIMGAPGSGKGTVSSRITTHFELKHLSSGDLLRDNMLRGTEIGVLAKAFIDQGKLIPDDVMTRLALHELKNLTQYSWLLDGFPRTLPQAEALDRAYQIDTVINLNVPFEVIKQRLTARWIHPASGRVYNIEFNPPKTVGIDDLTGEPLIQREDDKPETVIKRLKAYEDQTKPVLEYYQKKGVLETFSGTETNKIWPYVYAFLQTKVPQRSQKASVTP
UniProt Q9P107: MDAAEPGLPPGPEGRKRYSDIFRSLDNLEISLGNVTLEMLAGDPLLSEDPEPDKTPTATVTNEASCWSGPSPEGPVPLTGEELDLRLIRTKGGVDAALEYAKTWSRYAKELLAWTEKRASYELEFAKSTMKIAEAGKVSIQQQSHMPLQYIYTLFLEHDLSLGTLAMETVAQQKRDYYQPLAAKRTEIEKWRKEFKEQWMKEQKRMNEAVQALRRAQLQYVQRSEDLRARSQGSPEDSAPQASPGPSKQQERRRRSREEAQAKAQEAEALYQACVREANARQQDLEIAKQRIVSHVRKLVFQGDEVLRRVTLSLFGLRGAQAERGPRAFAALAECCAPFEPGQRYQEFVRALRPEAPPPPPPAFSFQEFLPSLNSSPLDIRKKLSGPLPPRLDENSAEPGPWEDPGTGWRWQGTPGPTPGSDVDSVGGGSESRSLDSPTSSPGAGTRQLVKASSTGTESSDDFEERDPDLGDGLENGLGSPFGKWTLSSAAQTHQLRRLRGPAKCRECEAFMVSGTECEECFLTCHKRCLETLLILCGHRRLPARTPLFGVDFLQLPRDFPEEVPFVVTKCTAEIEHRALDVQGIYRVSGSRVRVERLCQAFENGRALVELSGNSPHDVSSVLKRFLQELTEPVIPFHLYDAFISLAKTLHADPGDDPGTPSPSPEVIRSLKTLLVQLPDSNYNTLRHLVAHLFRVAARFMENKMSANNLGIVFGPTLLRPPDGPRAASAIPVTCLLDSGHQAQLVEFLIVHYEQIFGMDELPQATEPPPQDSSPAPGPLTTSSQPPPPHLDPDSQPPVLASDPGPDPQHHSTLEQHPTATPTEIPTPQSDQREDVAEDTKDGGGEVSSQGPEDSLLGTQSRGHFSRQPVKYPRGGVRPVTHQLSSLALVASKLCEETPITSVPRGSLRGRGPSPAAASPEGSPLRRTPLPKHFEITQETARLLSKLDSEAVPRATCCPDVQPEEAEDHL
UniProt Q9NXR5: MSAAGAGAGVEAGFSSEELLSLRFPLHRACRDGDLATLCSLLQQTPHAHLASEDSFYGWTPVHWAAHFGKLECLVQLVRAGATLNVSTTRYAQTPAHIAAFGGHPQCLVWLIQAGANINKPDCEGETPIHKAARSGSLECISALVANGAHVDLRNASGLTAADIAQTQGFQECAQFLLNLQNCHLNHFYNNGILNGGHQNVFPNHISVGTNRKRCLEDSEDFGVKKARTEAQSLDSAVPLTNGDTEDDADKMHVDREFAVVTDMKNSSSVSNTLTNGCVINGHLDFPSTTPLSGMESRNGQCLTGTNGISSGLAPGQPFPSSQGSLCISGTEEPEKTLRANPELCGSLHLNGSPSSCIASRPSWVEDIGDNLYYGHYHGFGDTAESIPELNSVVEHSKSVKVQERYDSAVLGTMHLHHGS
UniProt Q9NUQ3: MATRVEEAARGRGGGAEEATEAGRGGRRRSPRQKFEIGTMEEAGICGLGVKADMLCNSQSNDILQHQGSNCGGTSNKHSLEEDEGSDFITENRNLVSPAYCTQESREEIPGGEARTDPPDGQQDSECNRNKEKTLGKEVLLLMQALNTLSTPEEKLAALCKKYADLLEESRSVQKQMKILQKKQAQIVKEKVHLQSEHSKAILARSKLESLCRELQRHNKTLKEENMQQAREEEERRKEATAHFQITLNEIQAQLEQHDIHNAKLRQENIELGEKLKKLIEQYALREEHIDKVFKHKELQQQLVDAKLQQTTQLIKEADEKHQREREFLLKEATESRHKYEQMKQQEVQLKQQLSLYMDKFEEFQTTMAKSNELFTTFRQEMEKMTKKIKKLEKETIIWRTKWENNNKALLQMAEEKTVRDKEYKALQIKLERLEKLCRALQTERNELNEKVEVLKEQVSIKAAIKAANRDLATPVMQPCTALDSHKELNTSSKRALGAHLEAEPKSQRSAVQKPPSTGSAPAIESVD
UniProt Q9NYV4, whole entry, looked up: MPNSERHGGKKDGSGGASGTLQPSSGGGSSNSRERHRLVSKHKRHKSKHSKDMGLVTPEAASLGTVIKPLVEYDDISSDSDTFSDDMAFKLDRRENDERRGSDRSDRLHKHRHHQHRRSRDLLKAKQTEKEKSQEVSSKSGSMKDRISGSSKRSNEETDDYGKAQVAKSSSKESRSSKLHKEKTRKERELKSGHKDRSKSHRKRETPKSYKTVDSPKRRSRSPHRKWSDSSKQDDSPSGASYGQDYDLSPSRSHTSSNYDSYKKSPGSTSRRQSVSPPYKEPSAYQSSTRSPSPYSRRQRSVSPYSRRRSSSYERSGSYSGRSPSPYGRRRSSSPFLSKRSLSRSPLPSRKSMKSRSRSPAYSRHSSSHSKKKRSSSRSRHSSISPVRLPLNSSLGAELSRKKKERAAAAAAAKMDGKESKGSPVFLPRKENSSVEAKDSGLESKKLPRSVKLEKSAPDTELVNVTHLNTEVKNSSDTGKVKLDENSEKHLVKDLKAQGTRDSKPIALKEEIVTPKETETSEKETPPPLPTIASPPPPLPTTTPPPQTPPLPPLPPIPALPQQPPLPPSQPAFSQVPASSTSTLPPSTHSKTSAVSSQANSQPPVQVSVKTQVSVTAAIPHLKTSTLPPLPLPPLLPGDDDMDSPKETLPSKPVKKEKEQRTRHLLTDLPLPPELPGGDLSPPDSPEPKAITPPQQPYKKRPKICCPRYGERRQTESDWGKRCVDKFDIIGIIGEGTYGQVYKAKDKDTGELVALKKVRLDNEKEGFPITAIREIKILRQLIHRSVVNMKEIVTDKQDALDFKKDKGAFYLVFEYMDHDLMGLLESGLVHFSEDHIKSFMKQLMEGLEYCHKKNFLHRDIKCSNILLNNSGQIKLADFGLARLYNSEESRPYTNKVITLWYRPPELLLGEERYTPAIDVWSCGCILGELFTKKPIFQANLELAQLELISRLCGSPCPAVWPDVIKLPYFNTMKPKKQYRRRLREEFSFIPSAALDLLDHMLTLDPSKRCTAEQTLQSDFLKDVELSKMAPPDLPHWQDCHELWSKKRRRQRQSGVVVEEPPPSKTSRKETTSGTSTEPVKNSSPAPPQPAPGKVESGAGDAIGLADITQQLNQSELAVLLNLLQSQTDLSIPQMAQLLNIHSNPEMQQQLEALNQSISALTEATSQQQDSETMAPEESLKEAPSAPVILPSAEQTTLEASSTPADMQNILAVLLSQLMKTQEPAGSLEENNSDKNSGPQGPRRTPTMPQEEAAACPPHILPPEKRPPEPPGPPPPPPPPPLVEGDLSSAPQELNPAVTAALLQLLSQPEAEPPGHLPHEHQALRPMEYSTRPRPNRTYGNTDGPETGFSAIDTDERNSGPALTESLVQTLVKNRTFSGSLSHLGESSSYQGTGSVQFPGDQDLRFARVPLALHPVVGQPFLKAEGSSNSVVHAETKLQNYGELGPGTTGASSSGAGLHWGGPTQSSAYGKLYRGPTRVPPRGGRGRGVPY
UniProt Q9NX40: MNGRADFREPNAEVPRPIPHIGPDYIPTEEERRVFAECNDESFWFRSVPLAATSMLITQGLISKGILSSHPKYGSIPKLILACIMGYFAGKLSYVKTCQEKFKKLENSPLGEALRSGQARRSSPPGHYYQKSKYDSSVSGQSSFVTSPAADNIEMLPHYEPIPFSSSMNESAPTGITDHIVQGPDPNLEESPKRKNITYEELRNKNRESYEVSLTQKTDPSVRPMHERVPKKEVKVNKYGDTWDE

Experimental findings from the supplement of paper PMC6411743 are described below.

Compound in this experiment: Nc1nc2c(ncn2[C@@H]2O[C@H](COP(=O)(O)OP(=O)(O)OP(=O)(O)O)[C@@H](O)[C@H]2O)c(=O)[nH]1 [guanosine triphosphate]
Description: NP40-soluble protein abundance relative to vehicle (solubility fold change) (ratio); higher = more soluble protein in presence of GTP. An outline of the steps: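 Jurkat crude lysate (Dounce-homogenised) was treated with eight concentrations from 0.1 to 10 mM for 10 min at room temperature, then 3 min at 37 °C. It was solubilised with 0.8% NP40 and benzonase (60 min, 4 °C) and ultracentrifuged, and the supernatant was TMT-labelled for LC-MS/MS. Intensities were vsn-normalised, and the value is the fold change against the NP40-processed vehicle per replicate, from three independent experiments.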

Take UniProt Q9ULV4 and related entries: the NP40-soluble protein abundance runs as follows: (concentration: 0.1mM) 0.986 ± 0.021; (concentration: 0.5mM) 1.11 ± 0.089; (concentration: 1mM) 1.16 ± 0.088; (concentration: 2mM) 1.26 ± 0.17; (concentration: 4mM) 1.42 ± 0.22; (concentration: 6mM) 1.53 ± 0.3. For the same target, the NP40-soluble protein abundance is, setting by setting: (concentration: 8mM) 1.67 ± 0.33; (concentration: 10mM) 1.74 ± 0.36.

For UniProt Q9NV70 and related entries, the NP40-soluble protein abundance is, setting by setting: (concentration: 0.1mM) 1.05 ± 0.058; (concentration: 0.5mM) 1.08 ± 0.025; (concentration: 1mM) 1 ± 0.043; (concentration: 2mM) 1.01 ± 0.021; (concentration: 4mM) 1.02 ± 0.054; (concentration: 6mM) 1.01 ± 0.053. Besides, the NP40-soluble protein abundance is 1.01 ± 0.039 (concentration: 8mM) and 0.994 ± 0.025 (concentration: 10mM).

Take KCMF1 (UniProt Q9P0J7): the NP40-soluble protein abundance reads like this: (concentration: 0.1mM) 1.05 ± 0.23; (concentration: 0.5mM) 1.19 ± 0.2; (concentration: 1mM) 1.22 ± 0.28; (concentration: 2mM) 1.29 ± 0.34; (concentration: 4mM) 1.36 ± 0.28; (concentration: 6mM) 1.31 ± 0.33. Moreover, the NP40-soluble protein abundance runs as follows: (concentration: 8mM) 1.33 ± 0.34; (concentration: 10mM) 1.36 ± 0.38.

For UniProt Q9UBL3 and related entries, the NP40-soluble protein abundance reads like this: (concentration: 0.1mM) 0.994 ± 0.011; (concentration: 0.5mM) 1.04 ± 0.032; (concentration: 1mM) 1.015 ± 0.0035; (concentration: 2mM) 1.027 ± 0.0092; (concentration: 4mM) 1.02 ± 0.011; (concentration: 6mM) 1.04 ± 0.024. Moreover, the NP40-soluble protein abundance is, setting by setting: (concentration: 8mM) 1.06 ± 0.042; (concentration: 10mM) 1.04 ± 0.021.

As for AK3 (UniProt Q9UIJ7), the NP40-soluble protein abundance is, setting by setting: (concentration: 0.1mM) 0.926 ± 0.061; (concentration: 0.5mM) 0.875 ± 0.029; (concentration: 1mM) 0.924 ± 0.029; (concentration: 2mM) 0.917 ± 0.061; (concentration: 4mM) 0.902 ± 0.075; (concentration: 6mM) 0.886 ± 0.059. Besides, the NP40-soluble protein abundance is 0.825 ± 0.1 (concentration: 8mM) and 0.853 ± 0.064 (concentration: 10mM).

Regarding UniProt Q9P107 and related entries, the NP40-soluble protein abundance turned out to be 1.1 ± 0.029 (concentration: 0.1mM); 1.05 ± 0.031 (concentration: 0.5mM); 1.075 ± 0.0081 (concentration: 1mM); 1.09 ± 0.019 (concentration: 2mM); 1.1 ± 0.058 (concentration: 4mM); 1.06 ± 0.03 (concentration: 6mM). For the same target, the NP40-soluble protein abundance came out at 1.128 ± 0.0063 (concentration: 8mM) and 1.07 ± 0.0035 (concentration: 10mM).

As to UniProt Q9NXR7, the NP40-soluble protein abundance was 1.07 ± 0.051 (concentration: 0.1mM); 1.04 ± 0.058 (concentration: 0.5mM); 1.06 ± 0.081 (concentration: 1mM); 1.06 ± 0.069 (concentration: 2mM); 1.11 ± 0.075 (concentration: 4mM); 1.05 ± 0.067 (concentration: 6mM). Besides, the NP40-soluble protein abundance by setting is: (concentration: 8mM) 1.08 ± 0.053; (concentration: 10mM) 1.04 ± 0.026.

As for UniProt Q9NXR5 and related entries, the NP40-soluble protein abundance (concentration: 0.1mM) is 1.1 ± 0.12; the NP40-soluble protein abundance (concentration: 0.5mM) turned out to be 0.986 ± 0.052; the NP40-soluble protein abundance (concentration: 1mM) stood at 1.13 ± 0.074; the NP40-soluble protein abundance (concentration: 2mM) was 1.02 ± 0.034; the NP40-soluble protein abundance (concentration: 4mM) stood at 0.985 ± 0.072; the NP40-soluble protein abundance (concentration: 6mM) was 1.01 ± 0.042. Moreover, the NP40-soluble protein abundance is, setting by setting: (concentration: 8mM) 0.998 ± 0.16; (concentration: 10mM) 0.988 ± 0.09.

As to UniProt Q9NUQ3, the NP40-soluble protein abundance (concentration: 0.1mM) came to 0.972 ± 0.044; the NP40-soluble protein abundance (concentration: 0.5mM) amounted to 0.956 ± 0.08; the NP40-soluble protein abundance (concentration: 1mM) came out at 0.973 ± 0.069; the NP40-soluble protein abundance (concentration: 2mM) was 0.937 ± 0.073; the NP40-soluble protein abundance (concentration: 4mM) came out at 0.928 ± 0.075; the NP40-soluble protein abundance (concentration: 6mM) was 0.949 ± 0.095. For the same target, the NP40-soluble protein abundance reads like this: (concentration: 8mM) 0.97 ± 0.084; (concentration: 10mM) 0.977 ± 0.064.

With UniProt Q9UER7 and related entries, the NP40-soluble protein abundance reads like this: (concentration: 0.1mM) 0.948 ± 0.067; (concentration: 0.5mM) 0.948 ± 0.042; (concentration: 1mM) 0.998 ± 0.058; (concentration: 2mM) 0.986 ± 0.082; (concentration: 4mM) 0.97 ± 0.067; (concentration: 6mM) 0.979 ± 0.051. In addition, the NP40-soluble protein abundance was found to be 0.993 ± 0.06 (concentration: 8mM) and 1.05 ± 0.12 (concentration: 10mM).

Turning to UniProt Q9NYV4 and related entries, the NP40-soluble protein abundance (concentration: 0.1mM) worked out at 1.03 ± 0.08; the NP40-soluble protein abundance (concentration: 0.5mM) was 1.13 ± 0.066; the NP40-soluble protein abundance (concentration: 1mM) was 1.17 ± 0.03; the NP40-soluble protein abundance (concentration: 2mM) was 1.18 ± 0.11; the NP40-soluble protein abundance (concentration: 4mM) worked out at 1.21 ± 0.089; the NP40-soluble protein abundance (concentration: 6mM) turned out to be 1.26 ± 0.13. Also, the NP40-soluble protein abundance runs as follows: (concentration: 8mM) 1.31 ± 0.12; (concentration: 10mM) 1.32 ± 0.2.

In the case of OCIAD1 (UniProt Q9NX40), the NP40-soluble protein abundance by setting is: (concentration: 0.1mM) 0.922 ± 0.025; (concentration: 0.5mM) 0.9 ± 0.044; (concentration: 1mM) 1.01 ± 0.016; (concentration: 2mM) 0.982 ± 0.058; (concentration: 4mM) 0.971 ± 0.072; (concentration: 6mM) 0.956 ± 0.053. For the same target, the NP40-soluble protein abundance by setting is: (concentration: 8mM) 0.956 ± 0.034; (concentration: 10mM) 0.974 ± 0.037.
